Assay results published in the supplement of paper PMC6078165.
± gives the standard deviation of the averaged measurements. The reference is the same well before dosing, and untreated signal decays as well.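 Fibroblast labels name human fibroblasts: mostly primary ones from tissues such as uterus (C12385, HUF), lung (H6013), bone (Hs27A), adrenal (HADF) and skin (WS1), plus mammary HMF and breast cancer-associated Hs343T. The cancer cells are basal-like or mesenchymal-like triple-negative breast cancer lines. The paper calls a changed response a hit when it shifts by more than 3x the replicate standard deviation. The tissue of the other fibroblasts is not given here.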

Tested on: BT20
Experiment: relative JC-1 red fluorescence (viability) vs pre-drug, coculture with fibroblast (fraction); higher = more viable cancer cells
Details: 0.1 µM
Procedure: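 JC-1 labelled TNBC cells cocultured 1:1 (1,500 cells each) with CellTrace Violet stained primary or stromal fibroblasts in 384-well plates in FluoroBrite medium, treated with one of 42 anticancer drugs at 0.1, 1, 10 or 100 uM. JC-1 red fluorescence (mitochondrial integrity in cancer cells only) was read by plate reader every 8 h for 72 h. Values are normalised to each well's pre-drug value. The stock of one drug was tenfold lower, so its dose labels may be too high.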

CC(C)C[C@H](NC(=O)[C@H](Cc1ccccc1)NC(=O)c1cnccn1)B(O)O [Bortezomib]
relative JC-1 red fluorescence (8 h, coculture fibroblast: C12385): 0.937 ± 0.017
relative JC-1 red fluorescence (8 h, coculture fibroblast: H6013): 0.941 ± 0.04
relative JC-1 red fluorescence (8 h, coculture fibroblast: H6019): 0.849 ± 0.027
relative JC-1 red fluorescence (8 h, coculture fibroblast: H6076): 0.949 ± 0.033
relative JC-1 red fluorescence (8 h, coculture fibroblast: H6231): 0.961 ± 0.019
relative JC-1 red fluorescence (8 h, coculture fibroblast: HADF): 0.9965 ± 0.0026
relative JC-1 red fluorescence (8 h, coculture fibroblast: HCFa): 0.946 ± 0.052
relative JC-1 red fluorescence (8 h, coculture fibroblast: HCPF): 0.963 ± 0.013
relative JC-1 red fluorescence (8 h, coculture fibroblast: HHSteC): 0.946 ± 0.012
relative JC-1 red fluorescence (8 h, coculture fibroblast: HMF): 0.967 ± 0.0097
relative JC-1 red fluorescence (8 h, coculture fibroblast: HPFa): 0.967 ± 0.0098
relative JC-1 red fluorescence (8 h, coculture fibroblast: HUF): 0.8741 ± 0.0032
relative JC-1 red fluorescence (8 h, coculture fibroblast: Hs5): 0.9406 ± 0.0011
relative JC-1 red fluorescence (8 h, coculture fibroblast: Hs27A): 0.835 ± 0.063
relative JC-1 red fluorescence (8 h, coculture fibroblast: Hs343T): 0.983 ± 0.023
relative JC-1 red fluorescence (8 h, coculture fibroblast: WS1): 0.865 ± 0.01
relative JC-1 red fluorescence (16 h, coculture fibroblast: C12385): 0.964 ± 0.024
relative JC-1 red fluorescence (16 h, coculture fibroblast: H6013): 0.879 ± 0.061
relative JC-1 red fluorescence (16 h, coculture fibroblast: H6019): 0.7671 ± 0.00069
relative JC-1 red fluorescence (16 h, coculture fibroblast: H6076): 0.85 ± 0.012
relative JC-1 red fluorescence (16 h, coculture fibroblast: H6231): 0.893 ± 0.02
relative JC-1 red fluorescence (16 h, coculture fibroblast: HADF): 0.866 ± 0.15
relative JC-1 red fluorescence (16 h, coculture fibroblast: HCFa): 0.887 ± 0.058
relative JC-1 red fluorescence (16 h, coculture fibroblast: HCPF): 0.8832 ± 0.0043
relative JC-1 red fluorescence (16 h, coculture fibroblast: HHSteC): 0.873 ± 0.058
relative JC-1 red fluorescence (16 h, coculture fibroblast: HMF): 0.836 ± 0.024
relative JC-1 red fluorescence (16 h, coculture fibroblast: HPFa): 0.958 ± 0.052
relative JC-1 red fluorescence (16 h, coculture fibroblast: HUF): 0.817 ± 0.015
relative JC-1 red fluorescence (16 h, coculture fibroblast: Hs5): 0.9 ± 0.022
relative JC-1 red fluorescence (16 h, coculture fibroblast: Hs27A): 0.891 ± 0.042
relative JC-1 red fluorescence (16 h, coculture fibroblast: Hs343T): 0.872 ± 0.044
relative JC-1 red fluorescence (16 h, coculture fibroblast: WS1): 0.793 ± 0.018
relative JC-1 red fluorescence (24 h, coculture fibroblast: C12385): 0.909 ± 0.061
relative JC-1 red fluorescence (24 h, coculture fibroblast: H6013): 0.786 ± 0.055
relative JC-1 red fluorescence (24 h, coculture fibroblast: H6019): 0.765 ± 0.024
relative JC-1 red fluorescence (24 h, coculture fibroblast: H6076): 0.767 ± 0.031
relative JC-1 red fluorescence (24 h, coculture fibroblast: H6231): 0.835 ± 0.06
relative JC-1 red fluorescence (24 h, coculture fibroblast: HADF): 0.808 ± 0.047
relative JC-1 red fluorescence (24 h, coculture fibroblast: HCFa): 0.884 ± 0.072
relative JC-1 red fluorescence (24 h, coculture fibroblast: HCPF): 0.807 ± 0.034
relative JC-1 red fluorescence (24 h, coculture fibroblast: HHSteC): 0.869 ± 0.042
relative JC-1 red fluorescence (24 h, coculture fibroblast: HMF): 0.684 ± 0.034
relative JC-1 red fluorescence (24 h, coculture fibroblast: HPFa): 0.827 ± 0.16
relative JC-1 red fluorescence (24 h, coculture fibroblast: HUF): 0.81 ± 0.016
relative JC-1 red fluorescence (24 h, coculture fibroblast: Hs5): 0.902 ± 0.03
relative JC-1 red fluorescence (24 h, coculture fibroblast: Hs27A): 0.858 ± 0.041
relative JC-1 red fluorescence (24 h, coculture fibroblast: Hs343T): 0.679 ± 0.055
relative JC-1 red fluorescence (24 h, coculture fibroblast: WS1): 0.791 ± 0.029
relative JC-1 red fluorescence (32 h, coculture fibroblast: C12385): 0.91 ± 0.038
relative JC-1 red fluorescence (32 h, coculture fibroblast: H6013): 0.739 ± 0.059
relative JC-1 red fluorescence (32 h, coculture fibroblast: H6019): 0.734 ± 0.037
relative JC-1 red fluorescence (32 h, coculture fibroblast: H6076): 0.773 ± 0.085
relative JC-1 red fluorescence (32 h, coculture fibroblast: H6231): 0.807 ± 0.092
relative JC-1 red fluorescence (32 h, coculture fibroblast: HADF): 0.956 ± 0.022
relative JC-1 red fluorescence (32 h, coculture fibroblast: HCFa): 0.819 ± 0.084
relative JC-1 red fluorescence (32 h, coculture fibroblast: HCPF): 0.766 ± 0.012
relative JC-1 red fluorescence (32 h, coculture fibroblast: HHSteC): 0.814 ± 0.05
relative JC-1 red fluorescence (32 h, coculture fibroblast: HMF): 0.625 ± 0.018
relative JC-1 red fluorescence (32 h, coculture fibroblast: HPFa): 0.843 ± 0.029
relative JC-1 red fluorescence (32 h, coculture fibroblast: HUF): 0.754 ± 0.044
relative JC-1 red fluorescence (32 h, coculture fibroblast: Hs5): 0.899 ± 0.064
relative JC-1 red fluorescence (32 h, coculture fibroblast: Hs27A): 0.854 ± 0.086
relative JC-1 red fluorescence (32 h, coculture fibroblast: Hs343T): 0.622 ± 0.032
relative JC-1 red fluorescence (32 h, coculture fibroblast: WS1): 0.755 ± 0.044
relative JC-1 red fluorescence (40 h, coculture fibroblast: C12385): 0.858 ± 0.063
relative JC-1 red fluorescence (40 h, coculture fibroblast: H6013): 0.813 ± 0.015
relative JC-1 red fluorescence (40 h, coculture fibroblast: H6019): 0.732 ± 0.032
relative JC-1 red fluorescence (40 h, coculture fibroblast: H6076): 0.823 ± 0.16
relative JC-1 red fluorescence (40 h, coculture fibroblast: H6231): 0.848 ± 0.13
relative JC-1 red fluorescence (40 h, coculture fibroblast: HADF): 0.958 ± 0.056
relative JC-1 red fluorescence (40 h, coculture fibroblast: HCFa): 0.837 ± 0.076
relative JC-1 red fluorescence (40 h, coculture fibroblast: HCPF): 0.8007 ± 0.0015
relative JC-1 red fluorescence (40 h, coculture fibroblast: HHSteC): 0.816 ± 0.057
relative JC-1 red fluorescence (40 h, coculture fibroblast: HMF): 0.569 ± 0.012
relative JC-1 red fluorescence (40 h, coculture fibroblast: HPFa): 0.86 ± 0.015
relative JC-1 red fluorescence (40 h, coculture fibroblast: HUF): 0.706 ± 0.041
relative JC-1 red fluorescence (40 h, coculture fibroblast: Hs5): 0.906 ± 0.065
relative JC-1 red fluorescence (40 h, coculture fibroblast: Hs27A): 0.856 ± 0.17
relative JC-1 red fluorescence (40 h, coculture fibroblast: Hs343T): 0.62077 ± 0.00043
relative JC-1 red fluorescence (40 h, coculture fibroblast: WS1): 0.698 ± 0.027
relative JC-1 red fluorescence (48 h, coculture fibroblast: C12385): 0.844 ± 0.081
relative JC-1 red fluorescence (48 h, coculture fibroblast: H6013): 0.82797 ± 0.00037
relative JC-1 red fluorescence (48 h, coculture fibroblast: H6019): 0.769 ± 0.037
relative JC-1 red fluorescence (48 h, coculture fibroblast: H6076): 0.838 ± 0.17
relative JC-1 red fluorescence (48 h, coculture fibroblast: H6231): 0.831 ± 0.13
relative JC-1 red fluorescence (48 h, coculture fibroblast: HADF): 0.816 ± 0.12
relative JC-1 red fluorescence (48 h, coculture fibroblast: HCFa): 0.863 ± 0.09
relative JC-1 red fluorescence (48 h, coculture fibroblast: HCPF): 0.8 ± 0.014
relative JC-1 red fluorescence (48 h, coculture fibroblast: HHSteC): 0.804 ± 0.075
relative JC-1 red fluorescence (48 h, coculture fibroblast: HMF): 0.5554 ± 0.0036
relative JC-1 red fluorescence (48 h, coculture fibroblast: HPFa): 0.8494 ± 0.0037
relative JC-1 red fluorescence (48 h, coculture fibroblast: HUF): 0.687 ± 0.063
relative JC-1 red fluorescence (48 h, coculture fibroblast: Hs5): 0.91 ± 0.049
relative JC-1 red fluorescence (48 h, coculture fibroblast: Hs27A): 0.943 ± 0.069
relative JC-1 red fluorescence (48 h, coculture fibroblast: Hs343T): 0.6258 ± 0.0021
relative JC-1 red fluorescence (48 h, coculture fibroblast: WS1): 0.704 ± 0.0082
relative JC-1 red fluorescence (56 h, coculture fibroblast: C12385): 0.854 ± 0.086
relative JC-1 red fluorescence (56 h, coculture fibroblast: H6013): 0.824 ± 0.1
relative JC-1 red fluorescence (56 h, coculture fibroblast: H6019): 0.808 ± 0.04
relative JC-1 red fluorescence (56 h, coculture fibroblast: H6076): 0.7541 ± 0.0074
relative JC-1 red fluorescence (56 h, coculture fibroblast: H6231): 0.842 ± 0.15
relative JC-1 red fluorescence (56 h, coculture fibroblast: HADF): 0.912 ± 0.036
relative JC-1 red fluorescence (56 h, coculture fibroblast: HCFa): 0.899 ± 0.1
relative JC-1 red fluorescence (56 h, coculture fibroblast: HCPF): 0.812 ± 0.039
relative JC-1 red fluorescence (56 h, coculture fibroblast: HHSteC): 0.835 ± 0.085
relative JC-1 red fluorescence (56 h, coculture fibroblast: HMF): 0.656 ± 0.12
relative JC-1 red fluorescence (56 h, coculture fibroblast: HPFa): 0.88 ± 0.049
relative JC-1 red fluorescence (56 h, coculture fibroblast: HUF): 0.699 ± 0.06
relative JC-1 red fluorescence (56 h, coculture fibroblast: Hs5): 0.946 ± 0.039
relative JC-1 red fluorescence (56 h, coculture fibroblast: Hs27A): 0.8723 ± 0.0014
relative JC-1 red fluorescence (56 h, coculture fibroblast: Hs343T): 0.641 ± 0.039
relative JC-1 red fluorescence (56 h, coculture fibroblast: WS1): 0.7212 ± 0.0012
relative JC-1 red fluorescence (64 h, coculture fibroblast: C12385): 0.864 ± 0.088
relative JC-1 red fluorescence (64 h, coculture fibroblast: H6013): 0.855 ± 0.095
relative JC-1 red fluorescence (64 h, coculture fibroblast: H6019): 0.84 ± 0.046
relative JC-1 red fluorescence (64 h, coculture fibroblast: H6076): 0.77686 ± 0.00031
relative JC-1 red fluorescence (64 h, coculture fibroblast: H6231): 0.853 ± 0.16
relative JC-1 red fluorescence (64 h, coculture fibroblast: HADF): 0.823 ± 0.18
relative JC-1 red fluorescence (64 h, coculture fibroblast: HCFa): 0.91 ± 0.11
relative JC-1 red fluorescence (64 h, coculture fibroblast: HCPF): 0.833 ± 0.03
relative JC-1 red fluorescence (64 h, coculture fibroblast: HHSteC): 0.843 ± 0.097
relative JC-1 red fluorescence (64 h, coculture fibroblast: HMF): 0.688 ± 0.11
relative JC-1 red fluorescence (64 h, coculture fibroblast: HPFa): 0.888 ± 0.069
relative JC-1 red fluorescence (64 h, coculture fibroblast: HUF): 0.702 ± 0.067
relative JC-1 red fluorescence (64 h, coculture fibroblast: Hs5): 0.943 ± 0.036
relative JC-1 red fluorescence (64 h, coculture fibroblast: Hs27A): 0.783 ± 0.022
relative JC-1 red fluorescence (64 h, coculture fibroblast: Hs343T): 0.673 ± 0.054
relative JC-1 red fluorescence (64 h, coculture fibroblast: WS1): 0.735 ± 0.01
relative JC-1 red fluorescence (72 h, coculture fibroblast: C12385): 0.875 ± 0.092
relative JC-1 red fluorescence (72 h, coculture fibroblast: H6013): 0.849 ± 0.14
relative JC-1 red fluorescence (72 h, coculture fibroblast: H6019): 0.862 ± 0.056
relative JC-1 red fluorescence (72 h, coculture fibroblast: H6076): 0.834 ± 0.058
relative JC-1 red fluorescence (72 h, coculture fibroblast: H6231): 0.869 ± 0.17
relative JC-1 red fluorescence (72 h, coculture fibroblast: HADF): 0.86 ± 0.13
relative JC-1 red fluorescence (72 h, coculture fibroblast: HCFa): 0.81 ± 0.029
relative JC-1 red fluorescence (72 h, coculture fibroblast: HCPF): 0.841 ± 0.039
relative JC-1 red fluorescence (72 h, coculture fibroblast: HHSteC): 0.839 ± 0.1
relative JC-1 red fluorescence (72 h, coculture fibroblast: HMF): 0.763 ± 0.03
relative JC-1 red fluorescence (72 h, coculture fibroblast: HPFa): 0.835 ± 0.14
relative JC-1 red fluorescence (72 h, coculture fibroblast: HUF): 0.705 ± 0.071
relative JC-1 red fluorescence (72 h, coculture fibroblast: Hs5): 0.965 ± 0.024
relative JC-1 red fluorescence (72 h, coculture fibroblast: Hs27A): 0.789 ± 0.12
relative JC-1 red fluorescence (72 h, coculture fibroblast: Hs343T): 0.687 ± 0.066
relative JC-1 red fluorescence (72 h, coculture fibroblast: WS1): 0.754 ± 0.011
